In this data set the target is RECQL5 11-609 (human) (UniProt O94762). As to the kind of experiment: fluorescence polarization. Conditions: FP: 10 mM HEPES pH 7.5, 150 mM NaCl, 25 C, 10 nM FITC probe, no nucleotide or Mg stated, recombinant protein, residues 11-609, label: 5' fluorescein (FITC) on RQ-1.
Where [1] appears, read: remaining substrates: low micromolar apparent Kd.

Chains of the proteins cited; added tags and fusions are not shown. Residues count along the entry.
UniProt O94762, 11-609: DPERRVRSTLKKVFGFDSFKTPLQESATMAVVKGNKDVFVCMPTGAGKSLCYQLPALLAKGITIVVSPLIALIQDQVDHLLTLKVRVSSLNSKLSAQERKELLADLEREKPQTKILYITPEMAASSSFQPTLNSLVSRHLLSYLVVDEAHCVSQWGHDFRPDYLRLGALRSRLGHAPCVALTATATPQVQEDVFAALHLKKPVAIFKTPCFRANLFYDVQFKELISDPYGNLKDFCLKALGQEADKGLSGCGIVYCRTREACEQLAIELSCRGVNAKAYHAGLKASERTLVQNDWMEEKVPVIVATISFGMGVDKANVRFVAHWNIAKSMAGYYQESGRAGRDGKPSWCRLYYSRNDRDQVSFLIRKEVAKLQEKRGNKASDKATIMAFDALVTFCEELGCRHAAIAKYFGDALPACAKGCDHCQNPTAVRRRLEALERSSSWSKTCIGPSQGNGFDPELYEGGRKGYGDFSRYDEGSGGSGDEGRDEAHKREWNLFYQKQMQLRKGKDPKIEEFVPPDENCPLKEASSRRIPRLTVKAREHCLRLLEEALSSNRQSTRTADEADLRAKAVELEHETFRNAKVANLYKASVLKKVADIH

For at least one entry, the source does not settle the construct or the ends of the probe. A weaker result is weaker than the reference pair of the same experiment. At least one verdict was read from the data and is not stated in words by the source.

On to “ATCGATAGTCGGATCCTCTAGACAGCTCCATGTAGCAAGGCACTGGTAGAATTCGGCAGCGTC / GACGCTGCCGAATTCTACCAGTGCCTTGCTATTTTTTTTTTTTCATGGAGCTGTCTAGAGGATCCGACTATCGAT [looped duplex (RQ-1 + PQ-8)]”, for which the binding result is recorded as “binds”.

Consider “ATCGATAGTCGGATCCTCTAGACAGCTCCATGTAGCAAGGCACTGGTAGAATTCGGCAGCGTC / GGAGCTGTCTAGAGGATCCGACTATCGA [3' overhang (RQ-1 + RQ-4)]”, for which the binding result under setting [1] is recorded as “binds more weakly”. In the case of “ATCGATAGTCGGATCCTCTAGACAGCTCCATGTAGCAAGGCACTGGTAGAATTCGGCAGCGTC / GACGCTGCCGAATTCTACCAGTGCCTTG [5' overhang (RQ-1 + RQ-9)]”, under setting [1], the binding result is “binds more weakly”.
